Measurements taken from patent publication US5605821, “Expression control sequences of the P-selectin gene” (Board of Regents of the University of Oklahoma).
Construct, isoform or probe ends are uncertain for at least one entry. At least one result comes from cells or an extract, where the contact may be indirect. For some assays here: Negatives hold for the conditions tested.

Experiments:
[1] = tested on: NF-kB family (complex II); test: EMSA; conditions: protein in an extract, protein details: nuclear extracts, label: 32P
[2] = tested on: RelA-containing heterodimers; test: EMSA; conditions: protein in an extract; protein details: cell extracts; label: 32P
[3] = tested on: NF-kB family (complex II); test: competition with a labelled probe; conditions: unlabeled oligo inhibited complex II; protein in an extract; protein details: nuclear extracts

| Sequence | binding result ([1]; complexes IIa and IIb) | binding result [2] | binding result [3] | binding result ([1]; complex II, blocked by antisera to NFKB1 and NFKB2) |
| --- | --- | --- | --- | --- |
| CATCTTCCATGGAAGGGGGTGACCCCTTGCCTCTTGGCAAC (double strand) [P-selectin 4632-4672] | binds | no binding |  |  |
| CGGCTGGGGATTCCCCATCT (double strand) [H-2Kb NF-kB element] |  |  | binds |  |
| GGAAGGGGGTGACCCCTTGCCTC (double strand) [P-selectin 4642-4664] |  | no binding |  | binds |
